In the supplement of paper PMC10849652:
This is one part of the list.

Amino acid sequences for entries named in this document (tags omitted). A change or cut given only in a name is not applied to a line headed by its entry.
UniProt Q3ZAQ7: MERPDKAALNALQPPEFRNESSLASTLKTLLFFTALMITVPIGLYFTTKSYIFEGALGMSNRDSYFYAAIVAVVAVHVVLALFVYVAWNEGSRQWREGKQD
UniProt Q562E7: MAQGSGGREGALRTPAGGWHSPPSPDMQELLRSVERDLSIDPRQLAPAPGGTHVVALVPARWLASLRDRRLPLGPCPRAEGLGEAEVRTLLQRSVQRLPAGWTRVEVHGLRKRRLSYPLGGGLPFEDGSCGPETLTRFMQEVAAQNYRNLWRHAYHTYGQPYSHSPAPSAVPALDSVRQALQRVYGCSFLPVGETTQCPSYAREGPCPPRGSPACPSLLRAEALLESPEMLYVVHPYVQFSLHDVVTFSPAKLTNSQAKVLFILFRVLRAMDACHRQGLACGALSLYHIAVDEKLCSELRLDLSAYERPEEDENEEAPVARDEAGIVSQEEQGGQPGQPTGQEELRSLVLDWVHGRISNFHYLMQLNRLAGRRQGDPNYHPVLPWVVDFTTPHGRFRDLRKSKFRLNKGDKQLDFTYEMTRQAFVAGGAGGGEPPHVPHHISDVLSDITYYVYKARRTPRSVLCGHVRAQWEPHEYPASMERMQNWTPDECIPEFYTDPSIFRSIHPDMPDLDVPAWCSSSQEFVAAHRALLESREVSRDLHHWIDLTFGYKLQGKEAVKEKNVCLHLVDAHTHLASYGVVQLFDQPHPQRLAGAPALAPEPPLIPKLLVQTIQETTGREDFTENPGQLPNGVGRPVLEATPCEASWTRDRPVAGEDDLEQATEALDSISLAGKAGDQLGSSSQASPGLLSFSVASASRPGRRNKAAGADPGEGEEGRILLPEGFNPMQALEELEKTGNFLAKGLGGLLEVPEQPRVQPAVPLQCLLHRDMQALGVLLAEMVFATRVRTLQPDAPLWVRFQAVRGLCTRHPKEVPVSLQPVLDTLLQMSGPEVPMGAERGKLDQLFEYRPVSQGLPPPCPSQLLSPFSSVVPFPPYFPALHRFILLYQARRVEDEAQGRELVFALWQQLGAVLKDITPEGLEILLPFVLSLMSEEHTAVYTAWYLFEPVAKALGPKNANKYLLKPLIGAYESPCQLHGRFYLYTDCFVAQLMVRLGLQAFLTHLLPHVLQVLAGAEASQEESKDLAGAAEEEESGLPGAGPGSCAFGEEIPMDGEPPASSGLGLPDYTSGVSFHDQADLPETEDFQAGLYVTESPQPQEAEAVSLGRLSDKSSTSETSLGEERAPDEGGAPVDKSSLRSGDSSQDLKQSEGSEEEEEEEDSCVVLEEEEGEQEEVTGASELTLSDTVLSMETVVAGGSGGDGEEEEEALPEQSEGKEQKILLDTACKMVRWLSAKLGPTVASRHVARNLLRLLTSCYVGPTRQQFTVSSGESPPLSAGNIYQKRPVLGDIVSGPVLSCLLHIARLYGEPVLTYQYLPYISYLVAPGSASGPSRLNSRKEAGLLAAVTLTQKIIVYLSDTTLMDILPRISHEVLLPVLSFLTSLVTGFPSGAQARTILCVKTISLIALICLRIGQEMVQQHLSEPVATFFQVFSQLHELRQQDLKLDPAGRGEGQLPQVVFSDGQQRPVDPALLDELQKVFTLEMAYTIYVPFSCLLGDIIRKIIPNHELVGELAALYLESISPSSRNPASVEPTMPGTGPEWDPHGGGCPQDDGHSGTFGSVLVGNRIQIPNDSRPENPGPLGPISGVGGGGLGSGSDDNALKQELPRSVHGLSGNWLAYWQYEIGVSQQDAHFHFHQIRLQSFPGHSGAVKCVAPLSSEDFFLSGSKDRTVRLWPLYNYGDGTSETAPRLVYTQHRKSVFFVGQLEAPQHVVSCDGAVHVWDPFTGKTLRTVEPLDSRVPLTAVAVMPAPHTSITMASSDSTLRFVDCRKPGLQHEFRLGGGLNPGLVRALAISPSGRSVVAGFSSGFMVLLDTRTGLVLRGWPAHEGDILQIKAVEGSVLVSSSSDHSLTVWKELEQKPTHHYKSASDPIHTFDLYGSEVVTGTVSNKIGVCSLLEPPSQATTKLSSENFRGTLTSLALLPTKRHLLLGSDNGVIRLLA
UniProt Q7Z5U6: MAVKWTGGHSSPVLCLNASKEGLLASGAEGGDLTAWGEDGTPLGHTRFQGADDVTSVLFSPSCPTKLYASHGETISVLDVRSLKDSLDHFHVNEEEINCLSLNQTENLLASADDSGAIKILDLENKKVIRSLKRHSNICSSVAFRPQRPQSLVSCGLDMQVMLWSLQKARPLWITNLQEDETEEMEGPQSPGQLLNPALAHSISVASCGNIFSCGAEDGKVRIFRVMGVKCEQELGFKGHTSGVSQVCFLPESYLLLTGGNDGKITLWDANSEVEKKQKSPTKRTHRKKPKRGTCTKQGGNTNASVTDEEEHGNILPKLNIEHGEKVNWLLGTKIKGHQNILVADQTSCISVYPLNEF
UniProt Q9BTA9: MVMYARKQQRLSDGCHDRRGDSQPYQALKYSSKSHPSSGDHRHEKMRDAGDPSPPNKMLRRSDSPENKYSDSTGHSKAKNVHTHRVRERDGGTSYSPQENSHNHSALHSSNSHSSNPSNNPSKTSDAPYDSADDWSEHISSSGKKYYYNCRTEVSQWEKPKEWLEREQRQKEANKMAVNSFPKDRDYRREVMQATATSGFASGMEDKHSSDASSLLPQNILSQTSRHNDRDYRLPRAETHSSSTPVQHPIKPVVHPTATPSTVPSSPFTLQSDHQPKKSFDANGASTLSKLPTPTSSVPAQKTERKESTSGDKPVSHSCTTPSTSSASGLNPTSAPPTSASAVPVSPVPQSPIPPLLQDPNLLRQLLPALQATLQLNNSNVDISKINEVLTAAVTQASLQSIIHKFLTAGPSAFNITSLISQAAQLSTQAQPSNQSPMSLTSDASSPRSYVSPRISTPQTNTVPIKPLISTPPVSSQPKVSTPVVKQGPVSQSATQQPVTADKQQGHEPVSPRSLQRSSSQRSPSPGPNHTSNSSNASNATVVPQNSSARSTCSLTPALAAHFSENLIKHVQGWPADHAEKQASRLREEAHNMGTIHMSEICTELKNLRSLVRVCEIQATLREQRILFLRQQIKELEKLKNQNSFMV
UniProt O15240: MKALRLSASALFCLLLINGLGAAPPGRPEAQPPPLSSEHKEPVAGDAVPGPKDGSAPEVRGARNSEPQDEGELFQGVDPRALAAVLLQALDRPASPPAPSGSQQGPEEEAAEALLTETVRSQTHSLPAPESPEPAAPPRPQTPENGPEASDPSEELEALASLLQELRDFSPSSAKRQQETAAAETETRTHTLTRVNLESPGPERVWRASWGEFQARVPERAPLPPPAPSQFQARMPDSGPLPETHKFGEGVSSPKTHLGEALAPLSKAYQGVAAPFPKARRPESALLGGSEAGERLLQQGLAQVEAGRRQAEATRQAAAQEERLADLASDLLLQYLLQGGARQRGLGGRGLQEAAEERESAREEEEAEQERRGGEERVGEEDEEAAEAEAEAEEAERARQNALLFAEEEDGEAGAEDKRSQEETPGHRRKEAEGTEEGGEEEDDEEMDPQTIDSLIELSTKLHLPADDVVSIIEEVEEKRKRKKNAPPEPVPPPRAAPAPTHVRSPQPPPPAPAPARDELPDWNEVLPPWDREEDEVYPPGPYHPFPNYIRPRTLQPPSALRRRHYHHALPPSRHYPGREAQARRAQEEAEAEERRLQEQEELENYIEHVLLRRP
UniProt Q5JSD2: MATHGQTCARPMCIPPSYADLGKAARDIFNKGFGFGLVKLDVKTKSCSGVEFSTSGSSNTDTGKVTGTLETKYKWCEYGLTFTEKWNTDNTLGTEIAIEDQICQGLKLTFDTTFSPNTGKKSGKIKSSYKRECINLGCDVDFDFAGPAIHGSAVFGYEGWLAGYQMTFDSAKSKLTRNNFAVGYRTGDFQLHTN
UniProt Q15906, whole entry, looked up: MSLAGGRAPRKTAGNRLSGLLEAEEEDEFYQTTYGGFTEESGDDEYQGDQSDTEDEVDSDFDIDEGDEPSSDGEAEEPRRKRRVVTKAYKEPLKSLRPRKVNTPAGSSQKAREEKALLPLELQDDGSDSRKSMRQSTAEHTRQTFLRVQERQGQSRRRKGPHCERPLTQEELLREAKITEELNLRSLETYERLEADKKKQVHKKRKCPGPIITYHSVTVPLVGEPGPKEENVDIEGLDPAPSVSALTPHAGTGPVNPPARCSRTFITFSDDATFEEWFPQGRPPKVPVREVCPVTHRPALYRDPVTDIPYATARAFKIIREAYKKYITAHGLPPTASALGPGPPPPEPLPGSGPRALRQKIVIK
UniProt Q96P53: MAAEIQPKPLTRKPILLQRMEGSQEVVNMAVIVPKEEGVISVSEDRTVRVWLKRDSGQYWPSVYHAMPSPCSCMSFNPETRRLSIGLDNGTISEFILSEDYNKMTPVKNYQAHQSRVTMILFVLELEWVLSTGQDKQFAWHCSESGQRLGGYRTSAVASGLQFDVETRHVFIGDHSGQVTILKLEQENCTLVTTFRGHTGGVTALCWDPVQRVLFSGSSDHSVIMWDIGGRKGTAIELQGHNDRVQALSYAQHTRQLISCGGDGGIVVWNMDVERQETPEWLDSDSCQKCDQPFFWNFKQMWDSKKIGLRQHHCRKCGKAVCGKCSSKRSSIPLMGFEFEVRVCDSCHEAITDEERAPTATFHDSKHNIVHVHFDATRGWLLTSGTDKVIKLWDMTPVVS
UniProt P57081: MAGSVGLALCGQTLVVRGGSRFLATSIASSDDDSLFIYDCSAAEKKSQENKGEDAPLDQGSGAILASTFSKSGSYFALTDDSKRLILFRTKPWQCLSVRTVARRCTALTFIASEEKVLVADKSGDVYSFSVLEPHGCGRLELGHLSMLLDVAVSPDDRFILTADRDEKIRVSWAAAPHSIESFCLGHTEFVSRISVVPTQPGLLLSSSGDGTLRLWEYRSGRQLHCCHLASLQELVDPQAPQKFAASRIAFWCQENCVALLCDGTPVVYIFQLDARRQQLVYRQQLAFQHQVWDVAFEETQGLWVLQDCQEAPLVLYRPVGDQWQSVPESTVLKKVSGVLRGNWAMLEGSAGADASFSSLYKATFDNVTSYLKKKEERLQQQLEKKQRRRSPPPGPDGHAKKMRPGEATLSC
UniProt Q15007: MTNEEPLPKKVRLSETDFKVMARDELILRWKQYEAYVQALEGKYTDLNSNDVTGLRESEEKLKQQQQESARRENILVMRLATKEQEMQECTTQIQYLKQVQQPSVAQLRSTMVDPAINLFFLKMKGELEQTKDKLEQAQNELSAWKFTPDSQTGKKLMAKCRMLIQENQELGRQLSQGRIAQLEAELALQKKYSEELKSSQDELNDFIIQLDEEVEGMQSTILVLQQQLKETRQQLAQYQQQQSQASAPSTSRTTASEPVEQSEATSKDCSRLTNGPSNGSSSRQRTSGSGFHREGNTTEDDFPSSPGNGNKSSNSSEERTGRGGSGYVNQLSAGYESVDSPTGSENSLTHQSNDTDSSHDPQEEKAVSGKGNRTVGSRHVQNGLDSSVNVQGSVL
UniProt Q9H867: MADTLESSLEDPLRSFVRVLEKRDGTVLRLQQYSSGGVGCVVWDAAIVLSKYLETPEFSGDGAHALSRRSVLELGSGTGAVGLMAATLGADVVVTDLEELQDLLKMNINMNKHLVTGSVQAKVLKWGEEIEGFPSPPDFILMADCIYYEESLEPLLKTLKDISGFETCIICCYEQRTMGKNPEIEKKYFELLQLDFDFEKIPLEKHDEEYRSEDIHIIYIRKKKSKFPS
UniProt Q96S15: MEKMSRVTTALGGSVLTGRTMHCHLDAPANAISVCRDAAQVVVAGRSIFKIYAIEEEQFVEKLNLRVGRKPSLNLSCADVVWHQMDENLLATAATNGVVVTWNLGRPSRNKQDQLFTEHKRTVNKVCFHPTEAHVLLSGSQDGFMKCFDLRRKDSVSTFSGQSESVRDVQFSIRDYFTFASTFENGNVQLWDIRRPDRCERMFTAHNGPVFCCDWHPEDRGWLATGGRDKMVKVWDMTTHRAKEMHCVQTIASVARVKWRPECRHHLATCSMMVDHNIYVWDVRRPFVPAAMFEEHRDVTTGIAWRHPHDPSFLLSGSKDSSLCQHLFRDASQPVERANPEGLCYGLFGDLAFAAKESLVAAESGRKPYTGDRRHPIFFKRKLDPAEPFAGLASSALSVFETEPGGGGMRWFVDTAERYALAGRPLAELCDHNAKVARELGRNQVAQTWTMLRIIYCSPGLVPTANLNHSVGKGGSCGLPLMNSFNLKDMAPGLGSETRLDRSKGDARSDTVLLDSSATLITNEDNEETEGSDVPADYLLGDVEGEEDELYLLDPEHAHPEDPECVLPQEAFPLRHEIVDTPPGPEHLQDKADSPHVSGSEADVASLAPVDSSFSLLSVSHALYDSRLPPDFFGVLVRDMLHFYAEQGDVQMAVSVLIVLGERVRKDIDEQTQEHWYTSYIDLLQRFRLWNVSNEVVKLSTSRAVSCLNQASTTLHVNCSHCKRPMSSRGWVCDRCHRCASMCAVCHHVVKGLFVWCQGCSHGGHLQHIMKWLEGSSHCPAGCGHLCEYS

Legend:
Test in all cases: log2 fold change, soluble protein after heating vs DMSO (PISA); higher = thermal stabilisation; K562 cells, 10 uM, 30 min; active = over 0.2 and 3.5 SD of the protein, either way, in both replicates (recomputed)
[1] = compound: COC1=CC=C(C=C1)CN2C=CC3=C2C=C(C=C3)C(=O)NO
How it was run: (§1)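 K562 cells at 2×10^6 cells/mL were treated with 10 μM compound for 30 min. Aliquots were heated for 3 min across 48°C-58°C, pooled, and extracted in PBS with 0.5% NP-40 at 4°C; soluble protein was the supernatant after 21,000xg for 90 min. Soluble protein was quantified by TMTpro 16plex LC-MS/MS with channel sums equalised, and reported as log2 fold change in thermal stability against DMSO controls, with values from duplicates.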

zotarolimus = compound: CO[C@H]1C[C@@H]2CC[C@@H](C)[C@@](O)(O2)C(=O)C(=O)N2CCCC[C@H]2C(=O)O[C@H]([C@H](C)C[C@@H]2CC[C@H](n3cnnn3)[C@H](OC)C2)CC(=O)[C@H](C)/C=C(\C)[C@@H](O)[C@@H](OC)C(=O)[C@H](C)C[C@H](C)/C=C/C=C/C=C/1C [zotarolimus]
How it was run: as §1

idasanutlin = compound: COc1cc(C(=O)O)ccc1NC(=O)[C@@H]1N[C@@H](CC(C)(C)C)[C@](C#N)(c2ccc(Cl)cc2F)[C@H]1c1cccc(Cl)c1F [idasanutlin]
How it was run: as §1

alisertib = compound: COc1cc(Nc2ncc3c(n2)-c2ccc(Cl)cc2C(c2c(F)cccc2OC)=NC3)ccc1C(=O)O [alisertib]
How it was run: as §1

[2] = compound: COc1cc2nc(-c3cc(F)ccc3O)nc(N[C@@H]3CNC[C@H]3C(C)(C)O)c2cc1OC
How it was run: as §1

gefitinib = compound: COc1cc2ncnc(Nc3ccc(F)c(Cl)c3)c2cc1OCCCN1CCOCC1 [gefitinib]
How it was run: as §1

[3] = compound: COc1cccc2cc(-c3nc([C@H]4CC[C@H](C(=O)O)CC4)n4ncnc(N)c34)[nH]c12
How it was run: as §1

lapatinib = compound: CS(=O)(=O)CCNCc1ccc(-c2ccc3ncnc(Nc4ccc(OCc5cccc(F)c5)c(Cl)c4)c3c2)o1 [lapatinib]
How it was run: as §1

pictilisib = compound: CS(=O)(=O)N1CCN(Cc2cc3nc(-c4cccc5[nH]ncc45)nc(N4CCOCC4)c3s2)CC1 [pictilisib]
How it was run: as §1

filanesib = compound: CON(C)C(=O)N1N=C(c2cc(F)ccc2F)S[C@@]1(CCCN)c1ccccc1 [filanesib]
How it was run: as §1

Measured: log2 fold change

VMA21 isoform 2 (UniProt Q3ZAQ7)
inactive: [1] 0.211 | zotarolimus 0.087 | idasanutlin 0.059 | alisertib -0.075 | [2] -0.21 | gefitinib 0.017 | [3] 0.047 | lapatinib 0.401 | pictilisib -0.352

WDR75 (UniProt Q8IWA0)
inactive: [1] -0.071 | zotarolimus -0.078 | idasanutlin 0.177 | alisertib -0.054 | [2] -0.04 | gefitinib 0.198 | [3] -0.078 | lapatinib -0.011

VDAC3 (UniProt Q9Y277)
inactive: [1] -0.042 | filanesib -0.041 | zotarolimus -0.024 | idasanutlin -0.066 | alisertib -0.005 | [2] 0.011 | gefitinib 0.003 | [3] 0.056 | lapatinib -0.022 | pictilisib 0.015

WDR81 (UniProt Q562E7)
inactive: [1] -0.308 | filanesib -0.024 | idasanutlin 0.073 | gefitinib 0.403

VWA5A (UniProt O00534)
inactive: [1] -0.035 | filanesib -0.006 | zotarolimus 0.043 | idasanutlin -0.028 | alisertib -0.038 | [2] 0.017 | gefitinib 0.017 | [3] 0.047 | lapatinib -0.045 | pictilisib -0.045

VKORC1L1, A0A3B3ISV4
inactive: [1] -0.163 | filanesib -0.006 | zotarolimus 0.004 | idasanutlin 0.003 | alisertib -0.03 | [2] -0.16 | gefitinib 0.017 | [3] 0.042 | lapatinib -0.037 | pictilisib 0.059

WARS1 (UniProt G3V277)
inactive: [1] -0.163 | filanesib 0.066 | idasanutlin 0.127 | alisertib 0.04 | gefitinib 0.021 | [3] 0.145 | pictilisib 0.095

VPS37B (UniProt Q9H9H4)
inactive: [1] 0.012 | filanesib 0 | idasanutlin -0.053 | alisertib 0 | [2] -0.105 | gefitinib -0.034 | [3] 0.016 | lapatinib 0.124 | pictilisib 0.032

VEZF1 (UniProt Q14119)
inactive: [1] -0.118 | filanesib 0.11 | zotarolimus -0.154 | idasanutlin 0.11 | alisertib -0.172 | [2] 0.046 | gefitinib 0.004 | [3] -0.07 | lapatinib 0.1 | pictilisib -0.107

WARS1 (UniProt G3V5U1)
inactive: [1] -0.557 | filanesib 0.025 | alisertib 0.391 | [3] -0.105

WDR53 (UniProt Q7Z5U6)
inactive: [1] 0.027 | filanesib -0.171 | zotarolimus -0.069 | idasanutlin 0.023 | alisertib -0.128 | [2] 0.026 | [3] 0.133 | lapatinib 0.041 | pictilisib -0.049

WASF1 (UniProt Q92558)
inactive: [1] -0.031 | zotarolimus 0.019 | idasanutlin -0.056 | alisertib -0.049 | [2] -0.011 | gefitinib 0.078 | [3] 0.154 | lapatinib 0.278 | pictilisib 0.125

WARS1 (UniProt G3V227)
inactive: zotarolimus 0.086 | idasanutlin -0.047

WAC (UniProt Q9BTA9)
inactive: [1] 0.115 | [2] 0.126 | lapatinib -0.13 | pictilisib 0.115

WDR13, A0A087X091
inactive: [1] 0.056 | gefitinib 0.052

VGF (UniProt O15240)
inactive: [2] 0.243 | lapatinib -0.032

WDR54 isoform 4 (UniProt Q9H977)
inactive: gefitinib 0.045

VHL (UniProt P40337)
inactive: filanesib -0.118 | zotarolimus -0.221 | idasanutlin -0.034

VPS35, A0A1W2PP10
inactive: [1] -0.154 | alisertib -0.005 | [2] -0.081 | gefitinib -0.049 | [3] 0.273 | lapatinib -0.125

VDAC2 (UniProt Q5JSD2)
inactive: filanesib 0.099 | alisertib -0.204 | [2] 0.118 | gefitinib -0.009 | [3] 0.129 | lapatinib -0.411 | pictilisib 0.287

VPS72 isoform 2 (UniProt Q15906)
inactive: filanesib 0.084 | zotarolimus -0.008 | idasanutlin 0.062 | alisertib -0.066 | [2] -0.047 | gefitinib 0.033 | [3] -0.094 | lapatinib 0.012

WNK4 (UniProt Q96J92)
inactive: idasanutlin 0.203

VCX3B (UniProt Q9H321)
inactive: filanesib -0.011 | zotarolimus -0.074 | idasanutlin 0.009 | alisertib -0.013 | [2] 0.003 | gefitinib 0.007 | [3] -0.041 | lapatinib -0.11 | pictilisib 0.039

WDR19 (UniProt Q8NEZ3)
inactive: zotarolimus -0.016 | idasanutlin 0.244 | [2] 0.162 | lapatinib -0.13

VLDLR (UniProt P98155)
inactive: filanesib -0.033 | alisertib 0.037 | gefitinib 0.114 | [3] 0.048 | pictilisib -0.028

VIL1 (UniProt P09327)
inactive: pictilisib -0.13

Looked up one by one from above, two records:
VIL1 (UniProt P09327)
inactive: pictilisib -0.13

VLDLR (UniProt P98155)
inactive: filanesib -0.033 | alisertib 0.037 | gefitinib 0.114 | [3] 0.048 | pictilisib -0.028

Following part

WDFY2 (UniProt Q96P53)
inactive: idasanutlin 0.086

WDR4 isoform 3 (UniProt P57081)
inactive: filanesib -0.007 | pictilisib 0.359

VIPAS39 (UniProt Q9H9C1)
inactive: filanesib 0.194 | zotarolimus -0.296 | idasanutlin -0.281 | alisertib 0.161 | [2] -0.178 | gefitinib 0.084 | [3] -0.349 | lapatinib 0.061

VEGFA (UniProt H0YBI8)
inactive: [1] -0.155 | idasanutlin 0.221 | alisertib -0.536 | [2] 0.572 | gefitinib 0.392 | [3] 0.087 | lapatinib 0.054

WARS1 (UniProt G3V3P2)
inactive: filanesib 0.087

WWOX (UniProt Q9NZC7)
inactive: filanesib 0.102 | zotarolimus 0.211 | alisertib -0.047 | [2] -0.162 | [3] 0.092 | lapatinib 0.038

WTAP (UniProt Q15007)
inactive: filanesib 0.053 | idasanutlin 0.269 | [2] -0.002 | lapatinib 0.087

VPS13A isoform 4 (UniProt Q96RL7)
inactive: [2] 0 | lapatinib -0.06

XIAP (UniProt P98170)
inactive: filanesib 0.046 | zotarolimus 0.008 | idasanutlin 0.009 | alisertib 0.089 | [2] 0.085 | gefitinib 0.115 | [3] 0 | lapatinib -0.01 | pictilisib 0.054

VPS54 (UniProt Q9P1Q0)
inactive: idasanutlin -0.004

VDAC2 (UniProt Q5JSD1)
inactive: alisertib 0.247 | [2] 0.017 | gefitinib -0.044 | [3] 0.308 | lapatinib -0.091

VNN1 (UniProt O95497)
inactive: zotarolimus -0.163

WDR76 (UniProt Q9H967)
inactive: idasanutlin 0.02 | [2] -0.015 | lapatinib 0.067

VCPKMT (UniProt Q9H867)
inactive: idasanutlin -0.138

WDR24 (UniProt Q96S15)
inactive: filanesib 0.128 | zotarolimus 0.061 | idasanutlin 0.068 | [2] 0.006 | lapatinib 0.067 | pictilisib -0.05

WDR33 (UniProt Q9C0J8)
inactive: filanesib 0.25 | zotarolimus 0.081 | idasanutlin 0.031 | alisertib -0.062 | [2] 0.188 | gefitinib -0.074 | [3] 0.058 | lapatinib 0.087

WIPI2 isoform 6 (UniProt Q9Y4P8)
inactive: zotarolimus -0.058 | idasanutlin -0.015 | [2] 0.013 | lapatinib 0.061 | pictilisib 0.19

VDAC1 (UniProt C9JI87)
inactive: filanesib 0.001 | zotarolimus -0.217 | idasanutlin -0.018 | alisertib -0.119 | [2] 0.161 | gefitinib -0.014 | [3] -0.014 | lapatinib -0.182

XAB2 (UniProt Q9HCS7)
inactive: [1] -0.174 | alisertib -0.12 | [3] 0.105
